Assay [1] addresses FtsQ_(50–276) (E. coli) (UniProt P06136). In words: SEC; analytical gel filtration, Superdex 200 10/300 GL, buffer B (20 mM Tris-HCl pH 8.0, 200 mM NaCl), 0.5 mL/min; high concentrations (101–370 μM); apparent Stokes radius compared with radii calculated from models; both purified.
Assay [2] has the same target. Kind of assay: SEC; analytical gel filtration, Superdex 200 10/300 GL, buffer B (20 mM Tris-HCl pH 8.0, 200 mM NaCl), 0.5 mL/min; low concentrations (6.8–22.2 μM); apparent Stokes radius compared with radii calculated from models; both purified.

Chains of the proteins cited; added tags and fusions are not shown. Residues count along the entry.
UniProt P06136, residues 50-276: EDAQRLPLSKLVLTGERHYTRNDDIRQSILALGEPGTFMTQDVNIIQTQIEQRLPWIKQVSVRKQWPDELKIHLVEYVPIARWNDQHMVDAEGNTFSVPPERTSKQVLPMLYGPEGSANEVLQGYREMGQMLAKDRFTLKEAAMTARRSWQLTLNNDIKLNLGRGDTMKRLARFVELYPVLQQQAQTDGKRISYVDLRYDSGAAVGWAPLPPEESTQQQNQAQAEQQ

These are yes or no findings as the source states them, for the method shown.

In the case of “FtsQ_(50–276) (from UniProt P06136 50-276) (domain or fragment)”, the binding result with FtsQ_(50–276) (E. coli) [1] is “no binding (tested: 370 μM)”; with FtsQ_(50–276) (E. coli) [2], “no binding (tested: 18.5 μM)”.

Source of the values: publication PMC6305486.
